## Primary screen of a compound library

Amino acid sequences for entries named in this document (tags omitted).
UniProt P9WPC5, whole entry: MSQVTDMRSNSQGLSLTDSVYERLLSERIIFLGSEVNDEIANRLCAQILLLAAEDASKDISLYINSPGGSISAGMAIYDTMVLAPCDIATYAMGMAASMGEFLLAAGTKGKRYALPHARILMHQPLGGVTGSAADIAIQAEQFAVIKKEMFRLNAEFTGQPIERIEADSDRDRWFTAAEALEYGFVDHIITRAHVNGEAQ
UniProt P9WPC3, whole entry partner: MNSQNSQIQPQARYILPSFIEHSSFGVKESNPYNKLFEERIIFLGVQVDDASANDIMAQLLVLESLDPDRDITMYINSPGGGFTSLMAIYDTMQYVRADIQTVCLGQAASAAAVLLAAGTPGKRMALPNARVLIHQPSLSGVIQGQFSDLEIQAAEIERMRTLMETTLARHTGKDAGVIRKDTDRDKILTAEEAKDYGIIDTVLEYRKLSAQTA
UniProt P9WNZ1, whole entry: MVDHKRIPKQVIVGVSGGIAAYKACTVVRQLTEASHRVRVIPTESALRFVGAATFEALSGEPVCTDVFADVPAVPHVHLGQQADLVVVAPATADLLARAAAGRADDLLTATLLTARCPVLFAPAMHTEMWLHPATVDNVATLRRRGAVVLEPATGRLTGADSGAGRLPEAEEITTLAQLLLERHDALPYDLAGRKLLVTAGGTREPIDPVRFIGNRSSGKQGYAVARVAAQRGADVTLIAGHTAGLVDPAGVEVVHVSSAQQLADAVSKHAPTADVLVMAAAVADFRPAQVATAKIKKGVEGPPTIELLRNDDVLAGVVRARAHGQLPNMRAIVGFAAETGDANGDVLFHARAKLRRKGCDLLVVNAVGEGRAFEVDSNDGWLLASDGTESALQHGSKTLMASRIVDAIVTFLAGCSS

The values are deposited in ChEMBL (CHEMBL3988442, “University of Dundee, Small-Polar-MMV Screening Library” (2021)).

Results are given as percent effect.
The controls that fix the scale are not given in the record; negative values are as filed.
Compounds were drawn at random from those tested, without regard to their results.
Two or more numbers in one place are separate tests of the same structure; such repeats can differ widely.
A dash means the value is not listed here; it may have been measured.

Toxoplasma: 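Assay of Toxoplasma gondii numbers, read through their beta-galactosidase reporter with a colour substrate. Tested at 10 µM. Higher reads as fewer parasites (inferred from which compounds were picked for retests). Size under these conditions: about 67,000 compounds, about 260 of them at 50% or above in at least one test.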
ClpP1P2: 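Protease assay of ClpP1P2, read by the AMC dye that it sets free. Target: ClpP1P2, Mycobacterium tuberculosis (UniProt P9WPC5 and UniProt P9WPC3). Concentration: 50 µM. Higher reads as stronger inhibition, judged from the few compounds that gave an IC50. Most other retested compounds had strongly negative values. Size under these conditions: about 69,000 compounds, about 10 of them at 50% or above in at least one test.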
T. brucei: 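Whole-parasite assay of Trypanosoma brucei over 72 hours; the read-out is not stated. Concentration: 30 µM. The record gives no direction; compounds that gave an IC50 in retests scored well above the rest, so higher reads as stronger inhibition. Values scatter widely below zero; nearly all retest evidence comes from the higher of the two concentrations used. Of about 64,000 compounds tested this way, about 940 (1.5%) reached 50% or more in at least one test.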
CoaBC: 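Coenzyme A biosynthesis protein CoaBC, Mycobacterium tuberculosis (UniProt P9WNZ1). Enzyme assay of CoaBC with a phosphate dye (Biomol Green) read at 650 nm. Compounds at 30 µM. Direction is inferred from only a few compounds that gave an IC50; most scored high, so higher reads as stronger inhibition. Most strong results did not repeat in a second test. Of about 67,000 compounds tested this way, about 40 (0.06%) reached 50% or more in at least one test.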

SMILES | Toxoplasma | ClpP1P2 | T. brucei | CoaBC
CCN(CC)c1ncnc2c1CCN(C(=O)Cc1ccccn1)CC2.O=C(O)C(F)(F)F.O=C(O)C(F)(F)F | -5.177 | - | -12.88 | -
Fc1ccc(CN2CCCCC2Cn2cncn2)c2ncccc12 (configuration not stated) | -5.243 | 6.382 | -41.33 | 5.481
CN1C[C@@H](NC(=O)c2cc(F)cc(F)c2)C[C@H]1C(=O)NCc1ncc[nH]1 | 2.625 | -17.05 | -9.812 | 9.829
CCO[C@@H]1CO[C@@]2(CCN(Cc3ccc4c(c3)OCO4)C2)C1.O=C(O)C(F)(F)F | 7.064 | - | 14.48 | -
CC(C)Oc1cccc(CN(C)C(=O)Nc2cccn(C)c2=O)c1 | -4.174 | 10.55 | -22.46 | 2.826
CS(=O)(=O)NCCCN1CCCCC1c1cc2ccccc2[nH]1 (configuration not stated) | - | 5.252 | 5.993 | -6.941
[H][C@]12CCN(Cc3cccs3)[C@@]1([H])C[C@H](C(=O)N1CCOCC1)O2 | -21.9 | - | -41.45 | -
COc1ccc(CCNC(=O)C2CC2)c(Cl)c1 | 3.244 | -9.804 | -37.02 | -0.8485
CC(Cc1cnccn1)NC(=O)c1cccc(CC2CCNCC2)c1 (configuration not stated) | -0.9485 | 12.98 | -27.92 | 0.8264
O=C(NC[C@H]1OC[C@@H](NCc2ccccn2)[C@@H]1O)c1ccncc1 | -1.264 | -5.112 | -2.051 | 4.912
CCN(CC)c1ccc(CNC(=O)c2ccccn2)cn1 | 1.016 | 3.826 | -16.62 | -2.947
COc1cc(CNC2CCc3nc(C)nn3C2)cc2c1OCCO2 (configuration not stated) | -4.457 | 4.38 | 22.93 | -5.175
[H][C@]12CCCCN1CCC[C@H]2CN(C)Cc1ccc(-n2cccn2)cc1 | -26.74 | - | -70.81 | -
COCCC1(CO)CCCN(CCCc2ccccc2)C1 (configuration not stated) | 26.86 | -19.97 | -35.64 | 8.606
O=C(O)C(F)(F)F.[H][C@@]12C[C@H](C(=O)NC)CN(CC3CCOCC3)[C@]1([H])CCO2 | -0.3695 | - | -7.302 | -
NC(=O)CN(Cc1ncc(-c2ccc(Cl)cc2)o1)C1CCCC1 | 13.2 | 0.4055 | -9.489 | -0.8917
O=C(O)c1ccc2c(c1)C1(CCCCC1)CN2C(=O)c1cccs1 | 6.873 | -11.05 | -21.21 | -5.537
COCC(=O)N1C[C@H]2CCC[C@@]2(COC)C1 | - | -2.492 | - | -0.8485
Cc1cc(N2CCN(C(=O)c3cc(Cl)c[nH]3)CC2)nc(C(C)C)n1 | 22.11 | -0.811 | -55.97 | 1.091
O=C(C1CC1)N1CCC2(CCN2Cc2ccc(F)cc2)C1.O=C(O)C(F)(F)F (configuration not stated) | -29.18 | - | -12.66 | -
CC(=O)N1N=C(c2cccs2)OC1C(=O)NCc1ccc(C)o1 (configuration not stated) | -26.75 | -18.51 | 9.707 | 0.4854
c1cc(N2CCC(c3nnc(Cn4ccnc4)n3C3CC3)CC2)ccn1 | -6.122 | 9.038 | -25.45 | -1.927
O=C(O)C(F)(F)F.[H][C@@]12CCCO[C@]1([H])[C@H](NS(C)(=O)=O)CN(Cc1ccc(C)o1)C2 | 0 | - | -18.4 | -
[H][C@]12CN(Cc3cccc(OC)c3)CCN1C(=O)N(CCOC)C2 | 6.42 | - | 16.93 | -
Cc1cc(C(=O)NC2(c3ccc(Br)cc3)CC2)n(C)n1 | 16.18 | 7.417 | -24.15 | -
Cc1cnn(CC2CN(Cc3nc(C)no3)CCO2)c1 (configuration not stated) | 13 | -20.84 | -10.41 | -3.609
CCCNS(=O)(=O)c1cnccc1N1CCN(C(C)C)CC1 | 15.83 | 7.416 | -42.3 | -1.272
COc1ccc(-c2nnsc2C(=O)N2CCC(C(N)=O)CC2)cc1 | 1.318 | 2.853 | 7.87 | 5.67 & 26.65
CSc1nccc(NCC2CNCCO2)n1 (configuration not stated) | 5.431 | 9.381 | -0.219 | 10.43
CC(C)CN1C(=O)CO[C@@H]2CN(C(=O)N3CCOCC3)C[C@H]21 | - | 1.376 | - | 5.708
COc1nn(C)c2c1CCCN(C(=O)c1cccc3cccnc13)C2.O=C(O)C(F)(F)F | -4.697 | - | -75.72 | -
COc1ncccc1CNC(=O)NCCNC(=O)c1ccco1 | 6.933 | 4.772 | -15.16 | 6.128
CCCc1cc(=O)[nH]c2nnc(SCC(=O)NCCc3ccccc3)n12 | -9.457 | 5.589 | 6.349 | -0.1248
COCC(NC(=O)c1cn2ccsc2n1)c1ccnn1C (configuration not stated) | -9.792 | 8.059 | 4.113 | 2.133
CC(O)CN1CCN(C(=O)c2ccc(N3CCCC3)nn2)CC1 (configuration not stated) | -13.05 | -18.59 | 8.818 | 1.364
FC(F)(F)CCc1ncnn1-c1ccc2c(c1)OCO2 | 1.959 | -4.736 | -33.3 | -1.471
CCCc1cc(CNc2cc(CCC)nc3ccnn23)on1 | 10.93 | -8.116 | -24.69 | 7.253
O=C(O)C(F)(F)F.O=S(=O)(C1CC1)N1CCC[C@]2(C[C@@H](Oc3ccccn3)CO2)C1 | -4.676 | - | -151.9 | -
CNC(=O)[C@H]1C[C@@H]2CN(S(=O)(=O)c3cccc(F)c3)C[C@@H]2N1C | - | -4.285 | - | 1.954
O=C(NS(=O)(=O)c1cc(Cl)sc1Cl)c1cccc2c1OCCO2 | -0.4379 | -4.508 | -79.02 | -13.86
Cc1cc(C)n(C2CN(Cc3noc(-c4ccccc4)n3)C2)n1 | 3.824 | -16.34 | -19.23 | -25
CCCS(=O)(=O)N[C@H]1CN(c2ncccc2C(N)=O)C[C@@H]1C(C)C | 1.902 | -11.13 | -87.3 | 0.6452
OCCC1CN(c2nc(-c3ccncc3)nc3c2CCNCC3)CCO1 (configuration not stated) | 10.6 | -0.09179 | -5.579 | -0.6061
COCC1CCN(CCCc2cn[nH]c2)CC1 | 6.132 | -7.944 | -8.06 | 13.55
Cc1nc(NS(=O)(=O)c2cc(Br)ccc2C)no1 | -2.512 | -3.735 | -34.35 | -0.3654
COCCNC(=O)C1CN(Cc2cccc(C)n2)Cc2ccnn2C1.O=C(O)C(F)(F)F.O=C(O)C(F)(F)F (configuration not stated) | -4.204 | - | -10.08 | -
CC1(COc2ccccc2)NCCc2[nH]cnc21 (configuration not stated) | -8.53 | -4.403 | -47.53 | -4.615
CCc1noc(CN(C)C(=O)C2COc3ccccc3C2)n1 (configuration not stated) | 1.622 | -12.83 | -3.832 | 3.739
c1cnc(-c2nc(CN3CCn4c(nnc4C4CC4)C3)cs2)nc1 | 0.4489 | -2.909 | 1.717 | 11.58
CC1c2ncc(Cn3cncn3)n2CCN1C(=O)C1CCOCC1 (configuration not stated) | -0.4274 | -2.561 | 5.788 | -1.65
COCCOCC(=O)NC(C#N)c1ccccc1C (configuration not stated) | -13.48 | -2.007 | -21.31 | -0.9926
[H][C@@]12COC[C@]1(CNS(C)(=O)=O)CN(C(=O)c1occc1C)C2 | -9.255 | - | -47.16 | -
O=C(NC1CCCC1)c1ccc(C2CCCNC2)nc1 (configuration not stated) | - | 13.09 | - | 5.068
Cc1n[nH]c(C)c1CCC(=O)NCC1(O)CCN(c2ccccn2)C1 (configuration not stated) | 3.944 | -2.426 | -7.679 | -12.88
Cc1cc(N2CCCC2(C)c2nc(C)cc(C(=O)N(C)C)n2)ncn1 (configuration not stated) | -6.951 | -6.782 | -11.87 | -7.622
CC(C)N(CC(N)=O)CC(=O)N(C1=CCCCC1)C1CC1 | -15.82 | 5.708 | -26.96 | 3.586
Cc1ccc(CNC2CCCc3c2cnn3Cc2ccccc2)s1 (configuration not stated) | - | -4.72 | - | -8.423
CSc1ccccc1NC(=O)C1CSc2ncc(C)c(=O)n2C1 (configuration not stated) | -8.487 | -17.36 | -36.48 | 0.5089
CCc1noc(C(C)N2CCN(CCOCC(F)(F)F)CC2)n1 (configuration not stated) | 9.257 | -14.19 | - | -1.619
Cc1ccc2oc(=O)n(CCC(=O)N3CCC4(CN(C)C(=O)O4)C3)c2c1 (configuration not stated) | -7.081 | -6.159 | -17.77 | -2.948
CN(C)CC1CN(Cc2cccc(C#N)c2)Cc2nccn2C1 (configuration not stated) | - | 8.606 | - | -12.12
O=C(NC[C@H]1OC[C@@H](NC2CCC2)[C@@H]1O)c1cccs1 | -4.144 | 0.2954 | -16.56 | 16.03
c1csc(-c2noc(CN3CCc4cncnc4C3)n2)c1 | -18.16 | -4.731 | 17.92 | 1.974
O=C(c1nnn(-c2ccccc2)n1)N(CCO)CCO | -15.64 | 3.041 | -36.07 | 12.13
O=C(Nc1ccc(Cl)cc1)c1nn(C2CCS(=O)(=O)C2)c2c1CCCC2 (configuration not stated) | -19.33 | -19.3 | -43.99 | 2.152

3 of the entries, repeated:

SMILES,Toxoplasma,ClpP1P2,T. brucei,CoaBC
CN1C[C@@H](NC(=O)c2cc(F)cc(F)c2)C[C@H]1C(=O)NCc1ncc[nH]1,2.625,-17.05,-9.812,9.829
O=C(NC[C@H]1OC[C@@H](NC2CCC2)[C@@H]1O)c1cccs1,-4.144,0.2954,-16.56,16.03
Cc1ccc(CNC2CCCc3c2cnn3Cc2ccccc2)s1 (configuration not stated),-,-4.72,-,-8.423